These are yes or no findings as the source states them, for the method shown. Binding seen in cells or lysates may run through a third protein. Some entries that bind do so weakly or less than the wild type. Sequences can lack the tags named with a protein.

The chains behind the UniProt entries cited, without tags or fusion partners. Residues count along the entry.
UniProt Q15858, residues 1791-1988: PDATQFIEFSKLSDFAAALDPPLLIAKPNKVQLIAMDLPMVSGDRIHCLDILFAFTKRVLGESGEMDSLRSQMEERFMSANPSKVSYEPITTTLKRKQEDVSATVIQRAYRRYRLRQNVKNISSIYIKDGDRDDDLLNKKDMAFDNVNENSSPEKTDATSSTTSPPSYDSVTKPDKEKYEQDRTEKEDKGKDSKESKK

We go through one molecule from publication PMC12259270, “Sensory neuron–expressed FGF13 controls nociceptive signaling in diabetic neuropathy models” (The Journal of Clinical Investigation, 2025).

For the test, the target named is CD4-Nav1.7-CTD-NLuc (human) (UniProt Q15858). The experiment in a line: split reporter; split-luciferase complementation assay (LCA) in transfected cells, 96-well plates, D-luciferin added at time zero, luminescence read at 2 min intervals for 20-30 min at 37 °C.

B1: CLuc-FGF13 (protein, UniProt Q92913-2 1-192)
chain: MALLRKSYSEPQLKGIVTKLYSRQGYHLQLQADGTIDGTKDEDSTYTLFNLIPVGLRVVAIQGVQTKLYLAMNSEGYLYTSELFTPECKFKESVFENYYVTYSSMIYRQQQSGRGWYLGLNKEGEIMKGNHVKKNKPAAHFLPKPLKVAMYKEPSLHDLTEFSRSGSGTPTKSRSVSGVLNGGKSMSHNEST
For B1, the binding entry is listed as “binds”.
